Earlier results as cited in patent US20160050959A1, “TABLET COMPRISING FRUCTOSE” (NATURALIA INGREDIENTS S.R.L., priority 2013, published 2016).

Details: in vivo; cited from earlier work

| SMILES | glycemic index |
| --- | --- |
| O=C(CO)[C@@H](O)[C@H](O)[C@H](O)CO [fructose extracted from fruit, fructose] | 12 |
| O=C(CO)[C@@H](O)[C@H](O)[C@H](O)CO [fructose] | approximately 20 |
| O=C(CO)[C@@H](O)[C@H](O)[C@H](O)CO [“traditional” maize fructose, fructose] | 20 |
